Source: US20250368740A1
These are yes or no findings as the source states them, for the method shown. Some binding calls cover weakened binding; strength is not graded here.

Molecular target: T1, peptide 1, bio-… … (145-164) (human)
T1 sequence (peptide, N-terminal biotin): PSMTLEPNKDLRPGDTVTI
Assay: ELISA on biotin-labeled overlapping peptides

binding: binds
B1: murine monoclonal antibody 147# (antibody, V domains shown)
VH: QVQLKQSGIELVRPGASVKLSCKTSGYIFTADWIYWVKQRSGQGLEWIGRIYPGVDSTYYNEKFKDKAILTADKSSSTAYMQLNSLKSEDSAVYFCARGGEVRRDFYALDYWGQGTSVTVSS
VL: NIVMTQSPESMSMSLGERVTLSCKASENVGTYVSWYQQKPEQSPKLLIYGASNRYTGVPARFTGSGSATDFTLTISSVQAEDLADYHCGQRYSYPFTFGSGTKLEIK
